Earlier results on one molecule are cited in patent US5506359A, “Cocaine analogues and their use as cocaine drug therapies and therapeutic and imaging agents for neurodegenerative disorders” (priority 1993, dated 1996).

The structures appear in SMILES notation. Where two headings read alike, the source gives them in different places. The structures given here were assigned with low confidence; some may be wrong.

In series [1] the test system is binding sites for cocaine in brain tissue. The following applies: tested as the radiolabelled form, cited from earlier work.
The subject of series [2] is cocaine binding sites associated with the dopamine transporter. The conditions noted are these: tested as the radiolabelled form; cited from earlier work.

As to `COC(=O)[C@H]1[C@@H](OC(=O)c2ccccc2)C[C@@H]2CC[C@H]1N2C` [(-)-cocaine], the Kd in series [1] (read-out: K0.50, all brain regions studied) is 300 nM; in series [1] (read-out: affinity of [^3 H]cocaine for sites, saturable binding), 10 to 1000 nM. The dissociation from receptor result in series [1] is on record as “dissociates rapidly”. For the same molecule, the “[^3 H]cocaine binding sites in postmortem Parkinson's diseased putamen” value in series [2] is given as “Depletion”.
